Screening data, single-dose tests

Values are the deposited “Percent Effect”, in %. The controls that fix the scale are not given in the record; negative values are as filed. This is an unselected part of the compounds tested. Two or more numbers in one place are separate tests of the same structure; such repeats can differ widely.

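Whole-cell growth test on Mycobacterium tuberculosis, read after 3 days in glucose-containing 7H9 medium; the read-out is not stated. Compounds at 50 µM. Direction is inferred from retests: higher values go with more growth inhibition. About 69,000 compounds were tested under these conditions; 1.1% (about 760) showed 50% or more at least once.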

Compound,percent effect
CCc1cc(C(=O)N2Cc3ccccc3OC3(CCOCC3)C2)on1,7.91%
CCCn1nc(C(=O)N(C)Cc2nnc3n2CCC3)ccc1=O,14.98%
Cc1n[nH]cc1CNC1CCN(c2ccc(F)cc2)CC1.Cl,-8.939%
COc1ccc(-c2nc(CN3CCCS3(=O)=O)co2)cc1,-2.613%
Cc1ccccc1C1(O)CCN(C(=O)CCc2cn3ccccc3n2)C1 (configuration not stated),-23.26%
Cc1oc(C)c(C(=O)NCc2ccccn2)c1C,-2.431%
Cn1nccc1-c1cc(C2CCN(S(C)(=O)=O)CC2)ccn1,8.119%
O=C(NCCn1cnc(C2CCCC2)cc1=O)NCc1cccs1,6.171% & -7.735%
COCCc1noc(CN2CCCC2Cn2nc(C)cc2C)n1 (configuration not stated),8.47%
CC1CCCN(C(=O)c2cccc(CS(C)(=O)=O)c2)C1 (configuration not stated),-12.55%
CN(CCc1ccncc1)CC1CCCN1c1cccnn1 (configuration not stated),4.277%
Cn1cc(-c2nc(CN3CCOC(Cn4cncn4)C3)cs2)cn1 (configuration not stated),-21.62%
O=C(O)C(F)(F)F.O=C(O)C(F)(F)F.[H][C@@]12C[C@@H](Oc3cncnc3)CN1CCN(C(=O)c1cccnc1)C2,-4.926% & -10.51%
Cc1occc1C(=O)NCC(O)c1ccc(Cl)s1 (configuration not stated),3.15% & -19.57%
COc1ccccc1CN1CC[C@]2(C[C@@H](OC)CO2)C1.O=C(O)C(F)(F)F,13.27%
Cc1noc(C)c1C(=O)NCCc1cccs1,9.474% & -6.475%
O=C(O)C(F)(F)F.[H][C@]12CN(Cc3ccc(C)cc3)C[C@@]1([H])S(=O)(=O)CC[C@@H]2C(=O)NCC(C)C,-9.478%
O=C(O)C(F)(F)F.O=C1CC[C@]2(CC[C@@H](NC3CCOCC3)CC2)N1Cc1ccccc1,-0.5328%
CN(C)c1cccc(C(=O)Nc2cnn(Cc3ccccn3)c2)c1,-2.84% & 5.874%
CCCNC(=O)c1nn(CC)cc1NC(=O)C(C)n1ncc(Cl)c1C (configuration not stated),-11.88%
COc1ccc(CN(Cc2ccsc2)CC2CCCO2)cn1 (configuration not stated),3.99%
CCc1nc(C)c(CN2CCN(c3ncnc4scc(C)c34)CC2)[nH]1,-9.625% & -1.818%
CCCc1cc(C(=O)N(Cc2cccnc2)Cc2cccnc2)[nH]n1,-4.301% & -27.19%
CC1Oc2ccc(S(=O)(=O)NCCCn3ccnc3)cc2NC1=O (configuration not stated),11.47%
CC(=O)N1CCC(c2nccnc2-c2ccc(C(=O)O)cc2)CC1,7.966%
COCC1(C(=O)N2CCC(c3nccn3CC3CC3)CC2)CCC1,-31.45%
O=C(CCCNC(=O)C1CC1)Nc1cnn(-c2ccccc2Cl)c1,5.712%
CS(=O)(=O)NCc1cnc2n1CCN(Cc1cccnc1)CC2.O=C(O)C(F)(F)F.O=C(O)C(F)(F)F,-1.564%
O=C(Nc1cnn(COc2ccc(F)cc2Cl)c1)C1CC1,24.23%
Cc1cc(NC(=O)CCN2CCn3c(C)nnc3C2)no1,-19.17%
CC(NC(=O)NCc1ccoc1)c1ccc2c(c1)CC(=O)N2 (configuration not stated),12.02%
COCC1CN(Cc2ccc(C)o2)Cc2nnn(C)c21.O=C(O)C(F)(F)F (configuration not stated),-3.979% & -18.51%
CNC(=O)[C@@H](C1CCCCC1)N1CCC[C@H]1C(=O)NCCN1CCCC1.Cl.Cl,-35.4% & -9.19%
CCn1nc(C)c2nc(C(C)C)nc(NCC(C)C)c21,62.72%
CS(=O)(=O)CCCC(=O)Nc1cc(-c2cccc(F)c2F)n[nH]1,-15.9%
[H][C@@]12CCN(C(C)=O)C[C@]1(C(=O)NCc1cnc(C)cn1)CCO2,-2.282%
CCNC(=O)[C@@H]1C[C@H](n2cc(CC3CCCCC3)nn2)CN1,-9.729%
CC1CN(C)CCN1C(=O)c1ccn(-c2cccc(Cl)c2)n1 (configuration not stated),-7.849%
CCN(Cc1ccc2c(c1)OCCO2)C(=O)NCc1csc(C)n1,15.26%
CCn1cc(CN2CCCN(C(=O)c3ccco3)CC2)cn1,21.91%
CC(C)N(Cc1nccn1C)C(=O)c1cc(Cl)c[nH]c1=O,-9.984%
Cc1nccc(CN2CCC(c3nnsc3S(C)(=O)=O)CC2)n1,22.46%
O[C@H]1[C@H](NCCSc2ccccn2)c2ccccc2C12CCNCC2,38.98%
CO[C@H]1CN(C(=O)OC(C)(C)C)CC1NCc1ccoc1 (some centres not stated),21.29%
COc1cc2c(cc1CNC(Cc1cccs1)c1nccs1)OCO2.Cl (configuration not stated),3.753%
CN(C)C(=O)CN1CCN(C(=O)C2CSc3ccccc3O2)CC1 (configuration not stated),-4.695% & 7.097%
N#Cc1ccc(Oc2cc(F)c(CN3CCCC3)c(F)c2)nc1,8.559%
CC(=O)Nc1nc(C2CCN(C(=O)c3cncs3)CC2)cs1,7.615%
O=C(NCc1cccnc1N1CCCCC1)c1cccs1,-5.526%
Cc1nnc(C(C)N(C)Cc2c(C)nn(-c3ccccc3C)c2C)o1 (configuration not stated),-27.26%
Cc1nc(N(C)CCCc2nccn2C)c2c(C)nn(C)c2n1,0.6567%
O=C(CNc1cc(-c2ccccc2)nc2ccnn12)NC1CC1,-49.93%
COc1ccc(Cc2nnc(NC(=O)C3CC34CCC4)s2)cc1OC (configuration not stated),6.892%
Cc1cnn(C2CN(CCCOc3ccc(C#N)cc3)C2)c1,-1.624%
O=C(CCC(=O)N1CCc2[nH]c3ccccc3c2C1)NCc1ccco1,-1.36% & -0.4311%
CNc1cc(C)nc(C2CN(Cc3ccc(Cl)cn3)CCO2)c1 (configuration not stated),24.89%
C[C@@H](CO)NC(=O)c1ccc2nc(NS(C)(=O)=O)sc2c1,-11.1%
CC(C)c1nccn1CCCNC(=O)c1ccc(-c2cn[nH]c2)nc1,-23.79%
CNS(=O)(=O)c1cccc(S(=O)(=O)Nc2ncc(C)s2)c1,-13.82%
COCc1cncc2c1CCN(Cc1ccccn1)C2.O=C(O)C(F)(F)F.O=C(O)C(F)(F)F.O=C(O)C(F)(F)F,-37.08%
CC(C)(O)c1cc(CC2(NCC3CCCCC3)COC2)no1,-33.55% & 4.886%
CN1CCN([C@H]2CCN(C(=O)c3cc(Cl)cn3C)C[C@H]2CCCO)CC1,18.98%
COc1nn(C)c2c1CCCN(C(=O)c1ccccc1F)C2,-26.17%
Cc1cc(-c2cc(F)ccc2C(=O)O)nc(C2CCCN(C)C2)n1 (configuration not stated),-2.617%
NC(=O)CS(=O)(=O)Cc1ccc(F)cc1,-1.346%
[H][C@]12CC[C@]([H])(CN(C3Cc4ccccc4C3)C1)N(Cc1nc(C)no1)C2,10.37%
CS(=O)(=O)CCCN(CCCO)C1CCc2ccccc21 (configuration not stated),-29.34%
CC(C)c1nc(CNc2ccc(CCO)cc2)cs1,27.22%
Cn1cc(Cl)c(C(=O)N2CCC(N3CCc4ccccc4C3)CC2)n1,-1.978%
O=C(O)C(F)(F)F.O=C(c1cnccn1)N1CC2(CCN(Cc3ccsc3)C2)C1,19.72%
CCc1cnc(N2CCN(CC(=O)Nc3c(C)n[nH]c3C)CC2)s1,6.389%
CC(C)c1cc(C(=O)O)nc2[nH]c(=O)[nH]c(=O)c12,6.46%

The last 9 entries again:

With Cc1cc(-c2cc(F)ccc2C(=O)O)nc(C2CCCN(C)C2)n1 (configuration not stated) the screen gave -2.617%.
With NC(=O)CS(=O)(=O)Cc1ccc(F)cc1 the screen gave -1.346%.
With [H][C@]12CC[C@]([H])(CN(C3Cc4ccccc4C3)C1)N(Cc1nc(C)no1)C2 the screen gave 10.37%.
With CS(=O)(=O)CCCN(CCCO)C1CCc2ccccc21 (configuration not stated) the screen gave -29.34%.
With CC(C)c1nc(CNc2ccc(CCO)cc2)cs1 the screen gave 27.22%.
With Cn1cc(Cl)c(C(=O)N2CCC(N3CCc4ccccc4C3)CC2)n1 the screen gave -1.978%.
With O=C(O)C(F)(F)F.O=C(c1cnccn1)N1CC2(CCN(Cc3ccsc3)C2)C1 the screen gave 19.72%.
With CCc1cnc(N2CCN(CC(=O)Nc3c(C)n[nH]c3C)CC2)s1 the screen gave 6.389%.
With CC(C)c1cc(C(=O)O)nc2[nH]c(=O)[nH]c(=O)c12 the screen gave 6.46%.

Source: ChEMBL document CHEMBL3988442, “University of Dundee, Small-Polar-MMV Screening Library” (2021).